Data on one compound can be found in patent US6790603B2, “Compositions for the storage of platelets” (Bioenergy, Inc., priority 1999, dated 2004).

The series has as its system platelet concentrates. The series can be described thus: pH and lactate of stored platelet concentrates.

For the compound `O=C[C@H](O)[C@H](O)[C@H](O)CO` [D-Ribose], the Lactate production entry (15 mM D-Ribose) is recorded as “high lactate production”. Moreover, for the setting “about 150 nM D-Ribose”, the Lactate entry is listed as “increased” and the “pH of platelet concentrate” value is given as “remains constant”.
